Data published in paper PMC5045193.
These are yes or no findings as the source states them, for the method shown. In cells and extracts the contact can be indirect. These calls come from enrichment with a bait or labelling near it, and not all partners need be listed.

Target: T1, SZY-20 (C. elegans (endogenous in C. elegans embryos)) (UniProt G5EGU9)
T1 sequence: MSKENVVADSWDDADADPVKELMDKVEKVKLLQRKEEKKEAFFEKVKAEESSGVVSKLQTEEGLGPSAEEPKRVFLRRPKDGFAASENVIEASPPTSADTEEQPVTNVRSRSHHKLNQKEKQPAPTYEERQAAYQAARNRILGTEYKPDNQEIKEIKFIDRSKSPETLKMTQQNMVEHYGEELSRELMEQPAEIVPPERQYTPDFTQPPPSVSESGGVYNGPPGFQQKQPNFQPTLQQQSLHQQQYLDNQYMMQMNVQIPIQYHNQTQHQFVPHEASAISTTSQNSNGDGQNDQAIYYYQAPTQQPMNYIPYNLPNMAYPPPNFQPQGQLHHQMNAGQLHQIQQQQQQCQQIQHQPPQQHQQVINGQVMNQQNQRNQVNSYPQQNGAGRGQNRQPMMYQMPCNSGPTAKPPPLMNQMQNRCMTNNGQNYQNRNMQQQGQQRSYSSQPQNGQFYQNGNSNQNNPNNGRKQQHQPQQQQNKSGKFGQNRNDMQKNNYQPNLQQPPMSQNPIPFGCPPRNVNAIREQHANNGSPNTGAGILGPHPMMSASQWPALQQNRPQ
Test: affinity purification with mass spectrometry; IP of endogenous SZY-20 with anti-SZY-20 from worm protein lysates, followed by mass spectrometry

binding: binds
B1: PAB-1 (protein, UniProt Q9U302 1-646)
chain: MEMNVAAPAAAVAGAAAPQPGQNQTGSSYTMASLYVGDLHPDVNESILFEKFSAAGPVLSIRVCRDNATRLSLGYAYVNFQQPADAERAMDTMNFEALHGKPMRIMWSQRDPAMRRSGAGNIFIKNLDKVIDNKSIYDTFSLFGNILSCKVAIDEDGFSKGYGFVHFETEEAAQNAIQKVNGMLLAGKKVFVGKFQPRAQRNRELGETAKQFTNVYVKNFGDHYNKETLEKLFAKFGNITSCEVMTVEGKSKGFGFVAFANPEEAETAVQALHDSTIEGTDLKLHVCRAQKKSERHAELKKKHEQHKAERMQKYQGVNLYVKNLDETVDDDGLKKQFESYGNITSAKVMTDENGRSKGFGFVCFEKPEEATSAVTEMNSKMVCSKPLYVAIAQRKEDRRAQLASQYMQRLASMRMHGNVPGAAMYNPTQPGPGYYVANPMQQQRNFAGGQQMVRPGGRWGMQNQYPVQNQYMMAQGPGVYQNRMGRPQNQQGGPRGPPQQYNQVAQGGVRMQGPPRTQNPGVQQQNVPRPPQQQQQQRPAPTGPKAPPQPYQAYQQRPQGIVIGGQEPLTSAMLAAAAPQEQKQLLGERIYALIEKLYPGHKDAGKITGMMLEIDNSELIMMLQDSELFRSKVDEAASVLVSAQKQ
